The subject of data set [1] is tumor tissue samples and normal tissue samples (HLA-B*07 positive). Description: Identification and quantitation of tumor associated peptides presented on the cell surface (HLA immunoprecipitation, label-free LC-MS). More on the design: species or system human. The settings on record: cancer entities on which the peptide was found presented (abbreviations in table head).

For data set [2], the system named is source genes of the peptides (mRNA). Put plainly: Expression profiling of genes encoding the peptides (RNAseq of tumor and normal tissue RNA). The arrangement: species or system human. The settings on record: for Gene Expression in tumor samples: Highly over-expressed (++): tumor types in which the peptide's source gene is highly over-expressed compared to a panel of normal tissues.

[3] abbreviates: tumor types in which the peptide's source gene is over-expressed compared to a panel of normal tissues, RNAseq.

For part of these data: For expression read-outs the peptide stands for its source gene, whose mRNA was measured; the gene is not named for every peptide.

For “376: peptide found in CXCR3 (gene looked up) (FPQVGRTAL; listed as Homo sapiens) [compound 376]”, in data set [1] (Table 8a), the “Peptide Presentation on cancer entities” value is “AML, BRCA, CCC, CLL, CRC, GBC, GC, HCC, HNSCC, MEL, NHL, NSCLCadeno, NSCLCother, NSCLCsquam, OC, OSCAR, PACA, PRCA, RCC, SCLC, UBC, UEC”. The “Gene Expression in tumor samples: over-expressed (+)” value (shortened to “Gene Expression … over-expressed (+)”) in data set [2] (tumor entities in which the source gene of the peptide is over-expressed compared to a panel of normal tissues (RNAseq)) is “CLL”.
“449: peptide found in MMP12 (gene looked up) (RPKTSVNLISSL; listed as Homo sapiens) [compound 449]”: the “Peptide Presentation on cancer entities” value in data set [1] (Table 8b) is listed as “SCLC”. Besides, in data set [2] (RNAseq), the “Gene Expression in tumor samples: Highly over-expressed (++)” value is reported as “CCC, GBC, GC, MEL, NSCLCadeno, OC, OSCAR, PACA, UBC.; UEC”. The “Gene Expression … over-expressed (+)” value in data set [2] (setting [3]) is “HCC, NHL, RCC”. For the same substance, in data set [2] (tumor types in which the peptide's source gene is very highly over-expressed compared to a panel of normal tissues, RNAseq), the “Gene Expression in tumor samples: very highly over-expressed (+++)” value is reported as “CRC, HNSCC, NSCLCother, NSCLCsqua; m, SCLC”.
In the case of “451: peptide found in PGR (gene looked up) (VPILPLNHAL; listed as Homo sapiens) [compound 451]”, the “Peptide Presentation on cancer entities” value in data set [1] (Table 8b) is reported as “UEC”. In data set [2] (RNAseq), the “Gene Expression in tumor samples: Highly over-expressed (++)” value is “UEC”. Further, the “Gene Expression … over-expressed (+)” value in data set [2] (setting [3]) is “BRCA”.
Turning to “470: peptide found in GRM8 (gene looked up) (RPNGEVKSEL; listed as Homo sapiens) [compound 470]”, the “Peptide Presentation on cancer entities” value in data set [1] (Table 8b) is on record as “SCLC”. Further, in data set [2] (RNAseq), the “Gene Expression in tumor samples: Highly over-expressed (++)” value is “CRC”. For the same substance, in data set [2] (setting [3]), the “Gene Expression … over-expressed (+)” value was “RCC, SCLC”.
As to “478: peptide found in GRM8 (gene looked up) (APKFISPASQL; listed as Homo sapiens) [compound 478]”, the “Peptide Presentation on cancer entities” value in data set [1] (Table 8b) is on record as “SCLC”. Further, the “Gene Expression in tumor samples: Highly over-expressed (++)” value in data set [2] (RNAseq) is “CRC”. In addition, the “Gene Expression … over-expressed (+)” value in data set [2] (setting [3]) is given as “RCC, SCLC”.
Take “481: peptide found in ADAM12 (gene looked up) (SPARALLLALA; listed as Homo sapiens) [compound 481]”: in data set [1] (Table 8b), the “Peptide Presentation on cancer entities” value is given as “HNSCC”. In data set [2] (RNAseq), the “Gene Expression in tumor samples: Highly over-expressed (++)” value was “BRCA, HNSCC, OSCAR”. The “Gene Expression … over-expressed (+)” value in data set [2] (setting [3]) is “CCC, CRC, GBC, GBM, GC, MEL, NHL, NSCLCadeno, NSCLCother, NSCLCsquam, OC, PACA, UBC, UEC”.
The like results for “488: peptide found in BTLA (gene looked up) (LPLGGLPLLI; listed as Homo sapiens) [compound 488]” were, in that order, “CLL”, “CLL” and “NHL”.
Take “497: peptide found in ROS1 (gene looked up) (YVVKPLHPF; listed as Homo sapiens) [compound 497]”: the “Peptide Presentation on cancer entities” value in data set [1] (Table 8b) was “CRC”. Moreover, the “Gene Expression in tumor samples: Highly over-expressed (++)” value in data set [2] (RNAseq) is recorded as “NSCLCadeno”. For the same substance, the “Gene Expression … over-expressed (+)” value in data set [2] (setting [3]) is on record as “NSCLCother, NSCLCsquam”.
